The list shows a part of the results.

Amino acid sequences for entries named in this document (tags omitted). A change or cut given only in a name is not applied to a line headed by its entry.
UniProt Q9NXH9: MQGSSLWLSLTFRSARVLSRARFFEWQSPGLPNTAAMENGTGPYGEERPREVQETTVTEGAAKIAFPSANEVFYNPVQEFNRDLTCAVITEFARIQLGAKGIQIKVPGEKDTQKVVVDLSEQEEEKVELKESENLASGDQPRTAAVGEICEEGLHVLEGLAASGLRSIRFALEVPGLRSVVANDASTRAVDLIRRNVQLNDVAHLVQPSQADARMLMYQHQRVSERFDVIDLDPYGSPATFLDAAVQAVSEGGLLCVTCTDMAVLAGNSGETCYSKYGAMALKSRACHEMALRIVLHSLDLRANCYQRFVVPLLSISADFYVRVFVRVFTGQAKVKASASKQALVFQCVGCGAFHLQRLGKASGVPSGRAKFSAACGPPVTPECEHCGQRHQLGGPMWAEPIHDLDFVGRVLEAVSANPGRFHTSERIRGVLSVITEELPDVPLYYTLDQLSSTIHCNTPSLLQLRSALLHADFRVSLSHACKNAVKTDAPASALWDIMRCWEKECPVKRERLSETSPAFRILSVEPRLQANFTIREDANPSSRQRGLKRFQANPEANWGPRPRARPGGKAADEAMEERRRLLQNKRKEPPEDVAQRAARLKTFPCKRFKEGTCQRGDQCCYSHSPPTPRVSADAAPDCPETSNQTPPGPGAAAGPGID
UniProt Q9Y5R8, whole entry, looked up: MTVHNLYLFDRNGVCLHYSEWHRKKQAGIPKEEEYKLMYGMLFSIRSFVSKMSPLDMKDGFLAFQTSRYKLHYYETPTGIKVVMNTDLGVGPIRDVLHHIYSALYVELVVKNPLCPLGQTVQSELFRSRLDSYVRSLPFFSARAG
UniProt Q8TEL6: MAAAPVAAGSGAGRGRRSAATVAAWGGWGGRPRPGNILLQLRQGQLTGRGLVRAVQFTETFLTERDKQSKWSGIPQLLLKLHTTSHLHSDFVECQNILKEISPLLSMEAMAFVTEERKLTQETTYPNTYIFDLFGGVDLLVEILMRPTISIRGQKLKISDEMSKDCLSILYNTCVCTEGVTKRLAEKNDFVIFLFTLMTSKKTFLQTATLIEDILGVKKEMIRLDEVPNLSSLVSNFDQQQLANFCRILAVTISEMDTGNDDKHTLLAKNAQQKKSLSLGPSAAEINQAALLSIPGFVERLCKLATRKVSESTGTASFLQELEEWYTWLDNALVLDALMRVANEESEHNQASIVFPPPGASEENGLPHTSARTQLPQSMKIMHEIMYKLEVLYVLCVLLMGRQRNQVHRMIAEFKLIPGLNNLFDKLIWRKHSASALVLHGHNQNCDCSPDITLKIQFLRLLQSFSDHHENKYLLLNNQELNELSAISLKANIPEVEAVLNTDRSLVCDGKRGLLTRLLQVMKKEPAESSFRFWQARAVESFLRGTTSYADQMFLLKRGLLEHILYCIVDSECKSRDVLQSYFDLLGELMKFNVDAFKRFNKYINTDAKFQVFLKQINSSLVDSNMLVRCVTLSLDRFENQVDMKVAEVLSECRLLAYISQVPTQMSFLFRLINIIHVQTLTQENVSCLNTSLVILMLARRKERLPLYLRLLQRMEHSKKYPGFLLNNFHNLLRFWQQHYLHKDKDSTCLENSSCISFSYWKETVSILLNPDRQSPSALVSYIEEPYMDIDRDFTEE
UniProt Q8WW01: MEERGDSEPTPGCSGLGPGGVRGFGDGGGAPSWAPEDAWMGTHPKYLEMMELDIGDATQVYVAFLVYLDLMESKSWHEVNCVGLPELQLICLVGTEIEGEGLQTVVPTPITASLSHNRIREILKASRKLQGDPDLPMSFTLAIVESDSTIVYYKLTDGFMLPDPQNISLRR
UniProt Q8WWH5: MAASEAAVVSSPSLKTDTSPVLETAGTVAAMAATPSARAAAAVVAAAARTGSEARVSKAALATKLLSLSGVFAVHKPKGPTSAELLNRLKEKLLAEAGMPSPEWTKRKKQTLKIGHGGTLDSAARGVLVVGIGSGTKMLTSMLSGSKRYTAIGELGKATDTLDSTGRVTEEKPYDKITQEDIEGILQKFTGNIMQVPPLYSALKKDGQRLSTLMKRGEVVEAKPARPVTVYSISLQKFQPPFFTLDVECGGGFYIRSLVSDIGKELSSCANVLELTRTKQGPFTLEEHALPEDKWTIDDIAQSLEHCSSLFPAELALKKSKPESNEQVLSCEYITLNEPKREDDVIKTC
UniProt Q99816: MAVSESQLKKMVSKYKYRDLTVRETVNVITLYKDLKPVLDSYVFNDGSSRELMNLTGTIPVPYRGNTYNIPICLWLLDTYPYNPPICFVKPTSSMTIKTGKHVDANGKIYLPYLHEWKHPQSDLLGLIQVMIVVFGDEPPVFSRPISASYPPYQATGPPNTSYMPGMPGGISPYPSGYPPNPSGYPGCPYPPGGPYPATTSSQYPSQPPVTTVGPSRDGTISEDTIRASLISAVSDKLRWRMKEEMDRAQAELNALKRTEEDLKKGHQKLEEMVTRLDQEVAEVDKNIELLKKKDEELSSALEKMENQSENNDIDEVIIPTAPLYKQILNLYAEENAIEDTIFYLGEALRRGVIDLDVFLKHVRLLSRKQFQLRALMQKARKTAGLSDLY
UniProt Q9UJA5: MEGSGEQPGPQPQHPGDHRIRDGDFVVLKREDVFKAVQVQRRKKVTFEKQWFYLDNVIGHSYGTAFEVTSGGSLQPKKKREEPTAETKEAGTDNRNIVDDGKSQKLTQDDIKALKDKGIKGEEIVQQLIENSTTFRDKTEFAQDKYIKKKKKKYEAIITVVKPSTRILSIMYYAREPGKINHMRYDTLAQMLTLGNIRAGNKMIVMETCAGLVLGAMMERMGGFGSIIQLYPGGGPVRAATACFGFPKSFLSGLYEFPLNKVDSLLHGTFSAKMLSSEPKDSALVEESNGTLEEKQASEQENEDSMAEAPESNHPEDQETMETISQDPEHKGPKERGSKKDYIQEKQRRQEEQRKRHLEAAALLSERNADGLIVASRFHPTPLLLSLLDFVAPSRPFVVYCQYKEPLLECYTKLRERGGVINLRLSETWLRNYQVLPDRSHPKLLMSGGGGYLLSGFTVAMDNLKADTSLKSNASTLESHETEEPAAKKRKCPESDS
UniProt Q9UPN9: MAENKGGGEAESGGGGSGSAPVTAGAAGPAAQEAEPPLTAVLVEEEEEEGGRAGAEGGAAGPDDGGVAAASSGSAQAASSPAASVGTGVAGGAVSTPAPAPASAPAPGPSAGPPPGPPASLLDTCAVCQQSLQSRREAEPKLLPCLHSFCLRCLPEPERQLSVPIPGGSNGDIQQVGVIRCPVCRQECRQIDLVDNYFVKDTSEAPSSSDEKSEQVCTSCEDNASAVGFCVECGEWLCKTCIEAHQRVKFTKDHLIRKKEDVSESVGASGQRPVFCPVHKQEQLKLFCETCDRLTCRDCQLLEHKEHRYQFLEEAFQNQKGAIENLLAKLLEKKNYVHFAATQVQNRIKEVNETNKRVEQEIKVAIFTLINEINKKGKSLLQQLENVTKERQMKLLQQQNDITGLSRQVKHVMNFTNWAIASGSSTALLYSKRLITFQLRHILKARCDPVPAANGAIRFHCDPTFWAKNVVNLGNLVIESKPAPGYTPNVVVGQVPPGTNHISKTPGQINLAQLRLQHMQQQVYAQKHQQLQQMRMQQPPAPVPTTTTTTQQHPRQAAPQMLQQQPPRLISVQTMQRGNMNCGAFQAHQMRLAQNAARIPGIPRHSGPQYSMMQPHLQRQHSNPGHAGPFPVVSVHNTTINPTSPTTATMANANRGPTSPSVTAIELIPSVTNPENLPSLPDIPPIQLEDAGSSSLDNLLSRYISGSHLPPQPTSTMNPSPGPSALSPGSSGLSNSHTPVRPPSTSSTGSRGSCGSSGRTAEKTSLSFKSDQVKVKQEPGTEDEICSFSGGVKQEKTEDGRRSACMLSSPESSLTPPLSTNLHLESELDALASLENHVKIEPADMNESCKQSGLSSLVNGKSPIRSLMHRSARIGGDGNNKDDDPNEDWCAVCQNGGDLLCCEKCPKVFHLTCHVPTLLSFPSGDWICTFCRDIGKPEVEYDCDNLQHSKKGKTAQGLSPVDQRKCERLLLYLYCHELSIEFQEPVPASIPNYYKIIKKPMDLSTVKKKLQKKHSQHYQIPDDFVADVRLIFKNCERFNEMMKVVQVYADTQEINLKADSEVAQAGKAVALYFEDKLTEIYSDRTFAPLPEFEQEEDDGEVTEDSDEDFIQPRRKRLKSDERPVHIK
UniProt Q6NXR4: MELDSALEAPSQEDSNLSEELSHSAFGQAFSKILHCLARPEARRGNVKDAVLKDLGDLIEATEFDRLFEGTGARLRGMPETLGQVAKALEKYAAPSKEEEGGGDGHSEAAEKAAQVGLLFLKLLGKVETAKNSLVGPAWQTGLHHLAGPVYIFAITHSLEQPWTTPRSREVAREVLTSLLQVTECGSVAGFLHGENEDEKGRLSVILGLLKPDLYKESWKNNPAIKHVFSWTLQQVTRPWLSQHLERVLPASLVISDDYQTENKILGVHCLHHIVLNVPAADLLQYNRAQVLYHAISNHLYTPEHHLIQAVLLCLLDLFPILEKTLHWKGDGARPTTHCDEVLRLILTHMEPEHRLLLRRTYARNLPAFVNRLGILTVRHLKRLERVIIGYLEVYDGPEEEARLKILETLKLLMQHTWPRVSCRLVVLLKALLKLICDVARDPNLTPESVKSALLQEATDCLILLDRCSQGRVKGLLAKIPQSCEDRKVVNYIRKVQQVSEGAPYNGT
UniProt Q9H3H1: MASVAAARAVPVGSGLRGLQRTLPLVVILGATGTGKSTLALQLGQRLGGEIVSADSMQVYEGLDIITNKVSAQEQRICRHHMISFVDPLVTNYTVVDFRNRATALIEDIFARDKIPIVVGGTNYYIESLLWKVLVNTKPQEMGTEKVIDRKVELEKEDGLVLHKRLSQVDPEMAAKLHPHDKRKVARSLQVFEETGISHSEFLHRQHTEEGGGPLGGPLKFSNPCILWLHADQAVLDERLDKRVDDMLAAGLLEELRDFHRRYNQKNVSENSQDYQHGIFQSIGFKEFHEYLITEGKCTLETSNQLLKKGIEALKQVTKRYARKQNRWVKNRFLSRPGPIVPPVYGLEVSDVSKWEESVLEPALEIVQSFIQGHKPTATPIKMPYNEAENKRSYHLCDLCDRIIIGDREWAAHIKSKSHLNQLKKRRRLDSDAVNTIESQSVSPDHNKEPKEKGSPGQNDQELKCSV
UniProt Q8TBZ6: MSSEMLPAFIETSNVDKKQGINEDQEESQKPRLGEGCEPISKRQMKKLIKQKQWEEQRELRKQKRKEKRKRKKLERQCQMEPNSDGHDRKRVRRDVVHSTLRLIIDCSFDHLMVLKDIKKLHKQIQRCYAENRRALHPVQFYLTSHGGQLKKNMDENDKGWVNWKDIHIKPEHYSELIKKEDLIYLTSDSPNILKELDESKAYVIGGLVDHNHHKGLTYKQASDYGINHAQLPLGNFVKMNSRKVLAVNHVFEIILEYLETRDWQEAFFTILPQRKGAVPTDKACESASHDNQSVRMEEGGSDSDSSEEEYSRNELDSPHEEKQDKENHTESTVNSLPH
UniProt Q12931: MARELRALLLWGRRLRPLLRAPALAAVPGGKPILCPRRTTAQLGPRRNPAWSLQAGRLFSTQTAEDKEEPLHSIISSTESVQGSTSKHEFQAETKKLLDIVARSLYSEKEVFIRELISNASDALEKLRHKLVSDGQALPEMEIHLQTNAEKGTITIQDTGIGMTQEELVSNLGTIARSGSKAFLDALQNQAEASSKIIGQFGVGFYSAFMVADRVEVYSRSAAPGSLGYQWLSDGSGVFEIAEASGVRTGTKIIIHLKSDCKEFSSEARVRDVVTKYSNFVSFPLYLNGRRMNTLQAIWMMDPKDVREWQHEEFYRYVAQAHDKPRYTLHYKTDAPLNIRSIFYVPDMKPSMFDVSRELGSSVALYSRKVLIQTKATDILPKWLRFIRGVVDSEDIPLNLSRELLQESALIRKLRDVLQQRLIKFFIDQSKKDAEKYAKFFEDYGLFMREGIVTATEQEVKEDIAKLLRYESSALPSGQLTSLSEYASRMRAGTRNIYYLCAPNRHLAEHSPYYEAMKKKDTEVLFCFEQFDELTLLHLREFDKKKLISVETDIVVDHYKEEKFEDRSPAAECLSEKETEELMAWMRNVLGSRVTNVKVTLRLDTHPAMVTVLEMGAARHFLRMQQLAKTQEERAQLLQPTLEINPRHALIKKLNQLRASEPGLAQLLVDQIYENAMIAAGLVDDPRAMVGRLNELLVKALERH
UniProt Q8NG11: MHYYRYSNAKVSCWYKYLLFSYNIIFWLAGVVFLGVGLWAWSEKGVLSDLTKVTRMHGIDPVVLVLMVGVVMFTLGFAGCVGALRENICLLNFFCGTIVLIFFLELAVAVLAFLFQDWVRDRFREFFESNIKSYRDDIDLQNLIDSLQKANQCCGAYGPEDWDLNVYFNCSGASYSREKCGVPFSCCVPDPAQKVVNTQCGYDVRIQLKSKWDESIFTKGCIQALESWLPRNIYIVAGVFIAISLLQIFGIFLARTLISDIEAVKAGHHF

From the supplement of paper PMC10849652 come the findings set out here.

Compound in the experiment: CC1=C(C=C(C=C1)NC(=O)C2=CC(=CC=C2)C(C)(C)C#N)NC3=CC4=C(C=C3)N=CN(C4=O)C
As to the kind of experiment: log2 fold change, soluble protein after heating vs DMSO (PISA); higher = thermal stabilisation; K562 lysate, 10 uM; active = over 0.2 and 3.5 SD of the protein, either way, in both replicates (recomputed). The essentials:
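K562 pellets were dounce-homogenised in PBS pH 7.4 containing 1 mM MgCl2, and the crude extract, at 1 mg/mL protein, was exposed to 10 μM compound for 30 min. Aliquots were heated for 3 min across 48°C-58°C, pooled, brought to 0.5% NP-40 at 4°C and spun at 21,000xg for 90 min, with the supernatant taken as soluble protein. TMTpro 16plex LC-MS/MS with equalised channel sums quantified that protein. Values are log-two fold changes in thermal stability relative to solvent controls, taken from duplicates.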
Consider TTLL12 (UniProt Q14166), for which the log2 fold change is inactive: -0.008.

For TTC33 (UniProt Q6PID6), the log2 fold change is inactive: 0.011.

For TRMT1 (UniProt Q9NXH9), the log2 fold change is inactive: 0.03.

On to TRAPPC1 (UniProt Q9Y5R8), for which the log2 fold change is inactive: 0.009.

As for TRPC4AP (UniProt Q8TEL6), the log2 fold change was inactive: 0.003.

Regarding TSC2 isoform 4 (UniProt P49815), the log2 fold change is inactive: 0.047.

Regarding TSEN15 (UniProt Q8WW01), the log2 fold change was inactive: -0.009.

In the case of TRUB1 (UniProt Q8WWH5), the log2 fold change was inactive: 0.055.

On to TSG101 (UniProt Q99816), for which the log2 fold change is inactive: 0.004.

For TTI1 (UniProt O43156), the log2 fold change is inactive: 0.068.

For TTL (UniProt Q8NG68), the log2 fold change was inactive: 0.063.

For TRMT6 (UniProt Q9UJA5), the log2 fold change is inactive: 0.01.

In the case of TTC5 (UniProt Q8N0Z6), the log2 fold change is inactive: 0.017.

For the target TRIM33 isoform 2 (UniProt Q9UPN9), the log2 fold change was inactive: -0.014.

As for TRNAU1AP (UniProt Q9NX07), the log2 fold change is inactive: -0.035.

As to TTI2 (UniProt Q6NXR4), the log2 fold change was inactive: -0.009.

As to TRMT5 (UniProt Q32P41), the log2 fold change is inactive: -0.005.

On to TRIT1 (UniProt Q9H3H1), for which the log2 fold change was inactive: -0.036.

On to TRMT10A (UniProt Q8TBZ6), for which the log2 fold change is inactive: 0.06.

As to TRAP1 (UniProt Q12931), the log2 fold change was inactive: -0.022.

For TSPAN14 (UniProt Q8NG11), the log2 fold change was inactive: 0.053.

On to TRMT61A (UniProt Q96FX7), for which the log2 fold change was inactive: 0.018.

Take TRMT61B (UniProt Q9BVS5): the log2 fold change was inactive: -0.013.
